Data from patent US6337317B1, “Antimicrobial peptides and methods of use thereof” (priority 2000, dated 2002).
Some entries share one result that the patent states for a list of compounds. Where a SMILES comes first, the peptide text is derived from it.

Tested on: E. coli DC2
Assay: Cytoplasmic membrane depolarization, diSC35 assay
Type: cell-based, Escherichia coli
Conditions: 0.25 μg/ml peptide
Experimental: The arrowhead indicates the time at which 0.25 μg/ml peptide was added. PV5: SEQ ID NO:11; PV7: SEQ ID NO:4; and PV8: SEQ ID NO:3.
The cytoplasmic membrane depolarization activity of the peptides was determined (Wu and Hancock (1999) J. Biol. Chem. 274:29-35) using the membrane potential sensitive dye 3,3-dipropylthiacarbocyanine diSC35 (28) and E. coli DC2. Bacterial cells in mid-log phase were centrifuged, washed in 5 mM HEPES, pH 7.8, and resuspended in the same buffer to an OD600 of 0.05. A stock solution of diSC35 was added to a final concentration of 0.4 μM and quenching was allowed to occur at room temperature for 20-30 min. Then KCl was added to the cell suspension to a final concentration of 100 mM to equilibrate the cytoplasmic and external K^+ concentrations. A 2-mL cell suspension was placed in a 1 cm cuvette and the desired concentration of tested peptide was added. Changes in fluorescence due to the disruption of the membrane potential in the cytoplasmic membrane were continuously recorded using a Perkin-Elmer model 650-10S spectrofluorimeter at an excitation wavelength of 622 nm and an emission wavelength of 670 nm. The concentration of peptide leading to a 50% of maximal increase in NPN uptake was recorded as the P50.

SMILES	lag time before any fluorescence increase was detected	maximum dye release relative to that mediated by polyphemusin I
CC(C)[C@@H]1NC(=O)[C@H](CCCNC(=N)N)NC(=O)[C@H](Cc2ccccc2)NC(=O)[C@@H](NC(=O)[C@H](Cc2c[nH]c3ccccc23)NC(=O)[C@H](CCCNC(=N)N)NC(=O)[C@@H](N)CCCNC(=N)N)CSSC[C@@H](C(=O)N[C@@H](CCCNC(=N)N)C(N)=O)NC(=O)[C@H](CCCCN)NC(=O)[C@H](Cc2ccc(O)cc2)NC(=O)[C@H](CCCNC(=N)N)NC(=O)[C@@H]2CSSC[C@H](NC1=O)C(=O)N[C@@H](Cc1ccc(O)cc1)C(=O)N[C@@H](CCCCN)C(=O)NCC(=O)N[C@@H](Cc1ccccc1)C(=O)N2 [SEQ ID NO:4, RRWCFRVCYKGFCRYKCR] (HELM PEPTIDE1{R.R.W.C.F.R.V.C.Y.K.G.F.C.R.Y.K.C.R.[am]}$PEPTIDE1,PEPTIDE1,4:R3-17:R3|PEPTIDE1,PEPTIDE1,8:R3-13:R3$$$V2.0)	more than 3 min	less than 50%
CC(C)[C@@H]1NC(=O)[C@H](CCCNC(=N)N)NC(=O)[C@H](Cc2ccccc2)NC(=O)[C@@H](NC(=O)[C@H](Cc2c[nH]c3ccccc23)NC(=O)[C@H](CCCNC(=N)N)NC(=O)[C@@H](N)Cc2ccccc2)CSSC[C@@H](C(=O)N[C@@H](CCCNC(=N)N)C(N)=O)NC(=O)[C@H](CCCCN)NC(=O)[C@H](Cc2ccc(O)cc2)NC(=O)[C@H](CCCNC(=N)N)NC(=O)[C@@H]2CSSC[C@H](NC1=O)C(=O)N[C@@H](Cc1ccc(O)cc1)C(=O)N[C@@H](CCCCN)C(=O)NCC(=O)N[C@@H](CCCNC(=N)N)C(=O)N2 [SEQ ID NO:3, FRWCFRVCYKGRCRYKCR] (HELM PEPTIDE1{F.R.W.C.F.R.V.C.Y.K.G.R.C.R.Y.K.C.R.[am]}$PEPTIDE1,PEPTIDE1,4:R3-17:R3|PEPTIDE1,PEPTIDE1,8:R3-13:R3$$$V2.0)	more than 3 min	less than 50%
